The record followed here is publication PMC11705638.

Experiment [1] deals with T1, HA-SIRT2 (human sirtuin 2 with a C-terminal HA tag) (human) (UniProt Q8IXJ6).
T1 sequence: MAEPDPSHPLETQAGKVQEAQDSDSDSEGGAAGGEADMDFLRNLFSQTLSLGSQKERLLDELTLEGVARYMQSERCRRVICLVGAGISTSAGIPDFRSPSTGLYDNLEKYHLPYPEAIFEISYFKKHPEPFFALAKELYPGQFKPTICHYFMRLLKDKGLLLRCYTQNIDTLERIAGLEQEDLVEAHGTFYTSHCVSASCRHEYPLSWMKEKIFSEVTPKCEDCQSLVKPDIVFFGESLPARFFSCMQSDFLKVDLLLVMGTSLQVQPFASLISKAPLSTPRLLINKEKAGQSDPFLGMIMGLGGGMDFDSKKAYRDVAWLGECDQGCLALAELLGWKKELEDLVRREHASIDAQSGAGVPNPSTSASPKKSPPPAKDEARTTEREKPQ
The experiment is described as follows: co-IP; HEK293T cells transfected with HA-SIRT2 and Flag-CPT2; lysis buffer 20 mM Tris-HCl pH 8.0, 100 mM NaCl, 1 mM EDTA, 0.5% NP-40; IP with anti-HA or anti-Flag, normal IgG as control; protein A/G magnetic beads; western blot.

Experiment [2] concerns the target T2, SIRT2 (endogenous, AC16 cells) (human (endogenous in AC16)) (UniProt Q8IXJ6).
T2 sequence: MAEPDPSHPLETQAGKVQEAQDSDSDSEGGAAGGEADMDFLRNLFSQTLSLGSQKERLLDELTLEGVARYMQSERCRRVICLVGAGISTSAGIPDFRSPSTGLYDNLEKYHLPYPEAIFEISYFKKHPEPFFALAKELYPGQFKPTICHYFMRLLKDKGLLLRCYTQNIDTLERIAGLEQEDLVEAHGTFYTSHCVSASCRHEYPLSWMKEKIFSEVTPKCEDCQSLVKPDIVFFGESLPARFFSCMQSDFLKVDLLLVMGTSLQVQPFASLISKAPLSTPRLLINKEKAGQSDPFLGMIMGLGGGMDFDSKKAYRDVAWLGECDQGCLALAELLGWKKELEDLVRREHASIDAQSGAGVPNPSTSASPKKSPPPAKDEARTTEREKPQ
As to the kind of experiment: co-IP; lysates of AC16 cells, endogenous proteins; IP with anti-SIRT2 or anti-CPT2; lysis buffer 20 mM Tris-HCl pH 8.0, 100 mM NaCl, 1 mM EDTA, 0.5% NP-40; protein A/G magnetic beads; western blot.

Experiment [3] has as its target T3, GST-SIRT2 fusion protein (UniProt Q8IXJ6).
T3 sequence: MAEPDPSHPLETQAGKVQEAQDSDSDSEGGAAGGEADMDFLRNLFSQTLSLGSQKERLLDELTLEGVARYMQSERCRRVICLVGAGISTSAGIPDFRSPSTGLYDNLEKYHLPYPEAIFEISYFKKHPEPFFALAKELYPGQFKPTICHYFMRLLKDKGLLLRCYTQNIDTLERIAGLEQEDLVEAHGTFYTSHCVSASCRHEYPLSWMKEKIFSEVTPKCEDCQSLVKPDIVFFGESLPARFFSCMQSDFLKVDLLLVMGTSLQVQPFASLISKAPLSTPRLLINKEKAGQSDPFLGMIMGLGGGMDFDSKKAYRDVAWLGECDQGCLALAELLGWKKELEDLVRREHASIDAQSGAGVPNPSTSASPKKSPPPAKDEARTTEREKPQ
The experiment is described as follows: pull-down; in vitro; GST fusion proteins on beads incubated with NP40 containing Myc/Flag-CPT2 overnight at 4°C, washed three times with NP40; western blot; both purified.

No constants are given. Whether binding was seen depends on the method and setting. For part of these data: Binding seen in cells or lysates may run through a third protein. Some results given as binding are weak or reduced against the parent protein; the word gives no strength. For part of these data: Where a sequence is shown, tags or fusion partners need not be part of it.

B1: Flag-CPT2 (human carnitine palmitoyltransferase 2 with an N-terminal FLAG tag) (enzyme, UniProt P23786 26-658)
chain: SAGSGPGQYLQRSIVPTMHYQDSLPRLPIPKLEDTIRRYLSAQKPLLNDGQFRKTEQFCKSFENGIGKELHEQLVALDKQNKHTSYISGPWFDMYLSARDSVVLNFNPFMAFNPDPKSEYNDQLTRATNMTVSAIRFLKTLRAGLLEPEVFHLNPAKSDTITFKRLIRFVPSSLSWYGAYLVNAYPLDMSQYFRLFNSTRLPKPSRDELFTDDKARHLLVLRKGNFYIFDVLDQDGNIVSPSEIQAHLKYILSDSSPAPEFPLAYLTSENRDIWAELRQKLMSSGNEESLRKVDSAVFCLCLDDFPIKDLVHLSHNMLHGDGTNRWFDKSFNLIIAKDGSTAVHFEHSWGDGVAVLRFFNEVFKDSTQTPAVTPQSQPATTDSTVTVQKLNFELTDALKTGITAAKEKFDATMKTLTIDCVQFQRGGKEFLKKQKLSPDAVAQLAFQMAFLRQYGQTVATYESCSTAAFKHGRTETIRPASVYTKRCSEAFVREPSRHSAGELQQMMVECSKYHGQLTKEAAMGQGFDRHLFALRHLAAAKGIILPELYLDPAYGQINHNVLSTSTLSSPAVNLGGFAPVVSDGFGVGYAVHDNWIGCNVSSYPGRNAREFLQCVEKALEDMFDALEGKSIKS
Consider B1, for which, in experiment [1], the binding result is “binds”.

B2: CPT2 (endogenous, AC16 cells) (enzyme, UniProt P23786 26-658)
chain: SAGSGPGQYLQRSIVPTMHYQDSLPRLPIPKLEDTIRRYLSAQKPLLNDGQFRKTEQFCKSFENGIGKELHEQLVALDKQNKHTSYISGPWFDMYLSARDSVVLNFNPFMAFNPDPKSEYNDQLTRATNMTVSAIRFLKTLRAGLLEPEVFHLNPAKSDTITFKRLIRFVPSSLSWYGAYLVNAYPLDMSQYFRLFNSTRLPKPSRDELFTDDKARHLLVLRKGNFYIFDVLDQDGNIVSPSEIQAHLKYILSDSSPAPEFPLAYLTSENRDIWAELRQKLMSSGNEESLRKVDSAVFCLCLDDFPIKDLVHLSHNMLHGDGTNRWFDKSFNLIIAKDGSTAVHFEHSWGDGVAVLRFFNEVFKDSTQTPAVTPQSQPATTDSTVTVQKLNFELTDALKTGITAAKEKFDATMKTLTIDCVQFQRGGKEFLKKQKLSPDAVAQLAFQMAFLRQYGQTVATYESCSTAAFKHGRTETIRPASVYTKRCSEAFVREPSRHSAGELQQMMVECSKYHGQLTKEAAMGQGFDRHLFALRHLAAAKGIILPELYLDPAYGQINHNVLSTSTLSSPAVNLGGFAPVVSDGFGVGYAVHDNWIGCNVSSYPGRNAREFLQCVEKALEDMFDALEGKSIKS
For B2, in experiment [2], the binding entry is on record as “binds”.

B3: Myc/Flag-CPT2 (enzyme, UniProt P23786 26-658)
chain: SAGSGPGQYLQRSIVPTMHYQDSLPRLPIPKLEDTIRRYLSAQKPLLNDGQFRKTEQFCKSFENGIGKELHEQLVALDKQNKHTSYISGPWFDMYLSARDSVVLNFNPFMAFNPDPKSEYNDQLTRATNMTVSAIRFLKTLRAGLLEPEVFHLNPAKSDTITFKRLIRFVPSSLSWYGAYLVNAYPLDMSQYFRLFNSTRLPKPSRDELFTDDKARHLLVLRKGNFYIFDVLDQDGNIVSPSEIQAHLKYILSDSSPAPEFPLAYLTSENRDIWAELRQKLMSSGNEESLRKVDSAVFCLCLDDFPIKDLVHLSHNMLHGDGTNRWFDKSFNLIIAKDGSTAVHFEHSWGDGVAVLRFFNEVFKDSTQTPAVTPQSQPATTDSTVTVQKLNFELTDALKTGITAAKEKFDATMKTLTIDCVQFQRGGKEFLKKQKLSPDAVAQLAFQMAFLRQYGQTVATYESCSTAAFKHGRTETIRPASVYTKRCSEAFVREPSRHSAGELQQMMVECSKYHGQLTKEAAMGQGFDRHLFALRHLAAAKGIILPELYLDPAYGQINHNVLSTSTLSSPAVNLGGFAPVVSDGFGVGYAVHDNWIGCNVSSYPGRNAREFLQCVEKALEDMFDALEGKSIKS
As for B3, the binding result in experiment [3] is given as “binds”.
